Patent publication US20260216379A1
These are yes or no findings as the source states them, for the method shown. Some entries that bind do so weakly or less than the wild type.

Amino acid sequences for entries named in this document (tags omitted).
UniProt Q04609: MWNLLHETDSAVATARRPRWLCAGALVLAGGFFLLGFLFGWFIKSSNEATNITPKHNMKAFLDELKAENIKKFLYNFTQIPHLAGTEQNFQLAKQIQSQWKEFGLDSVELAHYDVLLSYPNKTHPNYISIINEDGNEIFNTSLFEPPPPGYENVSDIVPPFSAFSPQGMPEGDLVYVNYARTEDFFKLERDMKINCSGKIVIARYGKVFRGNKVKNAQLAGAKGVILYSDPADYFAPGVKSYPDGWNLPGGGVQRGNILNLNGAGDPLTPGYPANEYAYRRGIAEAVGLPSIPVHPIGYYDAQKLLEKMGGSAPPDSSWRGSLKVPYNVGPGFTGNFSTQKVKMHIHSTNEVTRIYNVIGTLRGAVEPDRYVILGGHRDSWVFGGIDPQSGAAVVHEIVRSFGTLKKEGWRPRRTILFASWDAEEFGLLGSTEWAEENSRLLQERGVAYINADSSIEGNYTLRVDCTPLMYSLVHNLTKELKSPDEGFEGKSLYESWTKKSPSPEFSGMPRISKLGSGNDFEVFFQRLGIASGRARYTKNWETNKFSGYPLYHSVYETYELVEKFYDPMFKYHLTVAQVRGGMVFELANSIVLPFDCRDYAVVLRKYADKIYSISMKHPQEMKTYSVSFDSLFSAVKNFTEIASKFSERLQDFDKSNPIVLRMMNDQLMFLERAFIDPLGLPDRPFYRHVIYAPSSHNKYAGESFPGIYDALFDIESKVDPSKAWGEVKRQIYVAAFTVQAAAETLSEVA

What was measured:
PSMA [1] = target: PSMA (UniProt Q04609); experiment: fluorescence anisotropy (FIG. 8B)
PSMA [2] = target: PSMA (UniProt Q04609); experiment: fluorescence anisotropy (FIG. 12A)
PSMA [3] = target: PSMA (UniProt Q04609); experiment: fluorescence anisotropy, fluorescein-labelled agent
PSMA [4] = target: PSMA (UniProt Q04609); experiment: indirect ELISA on coated LNCaP cell lysate, Hill fit
PSMA [5] = target: PSMA (UniProt Q04609); experiment: indirect ELISA on coated LNCaP cell lysate, 0-100 µM agent
PSMA [6] = target: PSMA (UniProt Q04609); experiment: fluorescence anisotropy, 10 nM fluorescein-labelled agent with LNCaP cell lysate
PSMA [7] = target: PSMA (UniProt Q04609); experiment: fluorescence anisotropy (FIG. 8A)

Measured: binding

B1: ProCA32.564.PSMA (designed binder, not shown: small tags and cut ends)
chain: MSMTDLLNAEDIKKAVGAFSATDSFDHKKFFQMVGLKKKSADDVKKVFHMLDKDKDGFIEEDELGFILKGFSPDARDLSAKETKMLMAAGDKDGDGKIGVEEWSTLVAESLSFFSCWLRRSFSLT
not listed: PSMA [7]
binds: all other assays above

B2: ProCA32.562.PSMA (designed binder, not shown: small tags and cut ends)
chain: MSMTDLLNAEDIKKAVGAFSATDSFDHKKFFQMVGLKKKSADDVKKVFHMLDKDKDGFIEEDELGFILKGFSPDARDLSAKETKMLMAAGDKDGDGKIGVEEWSTLVAESSHSFSVGSGDHSPFT
binds: PSMA [7] | PSMA [3]

B3: ProCA32.WP.PSMA (designed binder, not shown: small tags and cut ends)
chain: MSMTDLLNAEDIKKAVGAFSATDSFDHKKFFQMVGLKKKSADDVKKVFHMLDKDKDGFIEEDELGFILKGFSPDARDLSAKETKMLMAAGDKDGDGKIGVEEWSTLVAESAEWWQPDTAHHWATLPDP
binds: PSMA [5]
